Data as given in PubChem BioAssay AID493014 (National Center for Advancing Translational Sciences (NCATS), 2011).
“And” between values parts separate entries of the source, which are not always exact repeats. Equal entries are not always repeated. The list shows a part of the results. The main result of the screen is listed elsewhere. These columns were measured beside it and carry no call. Compounds called inactive in the main read-out are mostly missing here. Words in brackets tell the shape of the fitted curve; partial curves, single points and poor fits give uncertain potencies.

Experiment: qHTS Assay to Find Inhibitors of Chronic Active B-Cell Receptor Signaling
Details: ABC-DLBCL IkBa-CBG/CBR reporter, luminescence ratio (green luciferase fused to IkBa over red control in TMD8 lymphoma cells), 4 h
Summary of the method: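 TMD8 ABC-DLBCL cells carrying doxycycline-inducible green luciferase fused to IkappaBalpha plus unfused red luciferase were exposed to compounds (up to 46 uM) for 4 hrs at 37C. Activity came from the overlap-corrected green/red luminescence ratio.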

[1] = measured here: CBR red luminescence, cell number
[2] = measured here: IkBa-CBG green luminescence

SMILES | AC50 [1] | AC50 [2]
N#CC1=C(N)Oc2cc(N)ccc2C1c1ccc(F)cc1 (stereo unspecified) | 29.1 µM [falling, single point] | –
COc1cc(C(=O)O)ccc1OCc1c(C)noc1C | 29.1 µM [rising, single point] | –
CC(=O)Nc1ccc(S(=O)(=O)NC2CC(=O)N(c3cccc(F)c3)C2)cc1 (stereo unspecified) | 0.82 µM [rising, partial curve, poor fit] | –
Cc1nc(CNS(=O)(=O)c2ccc(Br)cc2)cs1 | 20 µM [rising, single point] | –
O=C(Nc1ccccc1C(F)(F)F)c1cc2ncc(CCCl)cn2n1 | 6.51 µM [rising, partial curve, poor fit] | –
O=C(Nc1ccc(Cl)cc1)Nc1nnc(CSc2ccc(Cl)cc2)s1 | 5.8 µM [rising, full curve] | –
Cc1cc(=O)oc2cc(OCC3CC(c4ccc(Cl)cc4)=NO3)ccc12 (stereo unspecified) | 23.1 µM [rising, partial curve, poor fit] | –
Cc1nc2cc(-c3cccc(F)c3)nn2c(N2CCN(C(=O)c3ccco3)CC2)c1C | 20.6 µM [rising, single point] | –
CC1=C(C(N)=O)C(c2ccccn2)n2nc(SCc3ccccc3)nc2N1 (stereo unspecified) | 14.6 µM [falling, partial curve, poor fit] | –
CCOc1c(OC)cccc1C1CC(=O)Nc2cc(OC)c(OC)cc21 (stereo unspecified) | 2.06 µM [rising, full curve] | 5.8 µM [falling, partial curve]
COc1ccc2nc(SCC(=O)NC(C)c3ccccc3)[nH]c2c1 (stereo unspecified) | 2.59 µM [rising, full curve] | –
S=C(NCCSCc1c(Cl)cccc1Cl)Nc1ccccc1 | 0.1 µM [rising, full curve, poor fit] | –
CCn1nc(C(=O)N2CCN(Cc3nc4ccccc4s3)CC2)c2ccccc2c1=O | 2.59 µM [rising, full curve, poor fit] | –
CCCCCCc1nc(C(N)=O)c2[nH]c(=O)n(-c3ccc(OC)cc3OC)c2n1 | 2 µM [rising, partial curve, poor fit] | –
CN(c1ccccc1)S(=O)(=O)c1cccc(NS(=O)(=O)c2cccc(C(=O)O)c2)c1 | 16.4 µM [rising, single point] | –
CCOC(=O)c1c(NC(=O)c2cc(C)oc2C)sc(C(=O)Nc2ccc(Cl)cc2)c1C | 35.5 µM [falling, single point] | –
CC(C)NS(=O)(=O)c1ccc(Oc2ncc(C(F)(F)F)cc2Cl)cc1 | 0.00461 µM [rising, full curve, poor fit] | –
Cc1ccc(C(C)C)c(OCc2nn(CC(=O)c3ccc(Cl)cc3)c3[n+]2CCCCC3)c1 | 14.1 µM [falling, single point] | –
C/C=C/C=C/C(=O)Nc1nccs1 | 20.6 µM [falling, partial curve, poor fit] | –
COc1ccc(C(=O)O)cc1S(=O)(=O)Nc1ccc(Oc2ccccc2)cc1 | 16.4 µM [falling, partial curve] | –
COCCNC(=S)N/N=C/c1ccc(N2CCOCC2)cc1 | 23.1 µM [falling, single point] | 20.6 µM [falling, single point]

Look-ups from above:
For AC50 [1], COc1ccc2nc(SCC(=O)NC(C)c3ccccc3)[nH]c2c1 (stereo unspecified) is listed with 2.59 µM [rising, full curve]
For AC50 [1], CC(C)NS(=O)(=O)c1ccc(Oc2ncc(C(F)(F)F)cc2Cl)cc1 is listed with 0.00461 µM [rising, full curve, poor fit]
For AC50 [1], Cc1nc2cc(-c3cccc(F)c3)nn2c(N2CCN(C(=O)c3ccco3)CC2)c1C is listed with 20.6 µM [rising, single point]
For AC50 [1], S=C(NCCSCc1c(Cl)cccc1Cl)Nc1ccccc1 is listed with 0.1 µM [rising, full curve, poor fit]
For AC50 [1], CCOc1c(OC)cccc1C1CC(=O)Nc2cc(OC)c(OC)cc21 (stereo unspecified) is listed with 2.06 µM [rising, full curve]
For AC50 [1], CCOC(=O)c1c(NC(=O)c2cc(C)oc2C)sc(C(=O)Nc2ccc(Cl)cc2)c1C is listed with 35.5 µM [falling, single point]

Following part:

SMILES | AC50 [1] | AC50 [2]
CC(=O)c1ccc(C(=O)N(CCN(C)C)c2nc3c(Cl)cccc3s2)cc1 | 20 µM [falling, single point] | –
Cc1ccc(C2c3c(oc4ccccc4c3=O)C(=O)N2c2nnc(C(C)C)s2)o1 (stereo unspecified) | 0.092 µM [rising, full curve, poor fit] | –
CC1(C)CC(=O)c2sc(NC(=O)CCS(=O)(=O)c3ccccc3)nc2C1 | 16.4 µM [falling, partial curve] | –
O=C(Nc1ccnn1C1CCN(Cc2cccc(O)c2)CC1)C1CCCC1 | 14.1 µM [rising, partial curve, poor fit] | –
O=C(Nc1cc(C(F)(F)F)ccc1F)C1CCCCC1 | 5.17 µM [falling, single point] | –
CC(C)N(Cc1cc2ccccc2[nH]c1=O)C(=O)C1CCCCC1 | 14.6 µM [falling, partial curve] | 14.6 µM [rising, partial curve, poor fit]
Cc1ccc(CONC(=O)c2ccccc2Cl)cc1 | 29.1 µM [falling, single point] | –
CCc1nonc1NC(=O)c1oc2ccc(Cl)cc2c1C | 2.51 µM [rising, partial curve, poor fit] | –
CC[C@H](C)C(=O)O[C@H]1CCC=C2C=C[C@H](C)[C@H](CC[C@@H]3C[C@@H](O)CC(=O)O3)[C@H]21 | 35.5 µM [falling, single point] and 7.08 µM [falling, partial curve] | –
CC[C@]12c3[nH]c4cc(CCC(=O)N(C)C)ccc4c3CCN1C(=O)[C@@H](CC(=O)NCc1ccco1)C[C@@H]2C(=O)N1CCN(C(=O)c2ccco2)CC1 | 2.31 µM [rising, full curve] | 16.4 µM [falling, partial curve]
Cc1cccc(NC(=O)NNC(=O)c2cc(-c3ccccc3Cl)nc3ccccc23)c1 | 28.2 µM [falling, single point] | –
O=[N+]([O-])c1ccccc1C1Nc2cccc3cccc(c23)N1 | 3.26 µM [falling, single point] | –
c1ccc(-n2c(-c3cccs3)nc3nc4ccccc4nc32)cc1 | 0.651 µM [rising, full curve] | –
O=C(Nc1cccc(-c2cccc(Cl)c2)c1)C1CCN(C2CCC2)CC1 | 35.5 µM [falling, single point] | –
COc1ccc(OC)c(NC(=O)C2CCN(c3ncccn3)CC2)c1 | 17.8 µM [falling, single point] | –
COC(=O)c1cc(C(=O)Nc2nnc(CC(C)C)s2)cc([N+](=O)[O-])c1 | 4.61 µM [rising, partial curve, poor fit] | –
CCCN1CCC(=NNc2ccc(S(=O)(=O)N3CCOCC3)cc2[N+](=O)[O-])CC1 | 10.3 µM [falling, partial curve] | –
CCCCCCN=C1CC(C)(C)CC(=O)/C1=C(/O)CCC | 15.8 µM [falling, single point] | –
CCOC(=O)c1ccccc1NC(=O)CSc1ncc(C(=O)OCC)c(N)n1 | 29.1 µM [falling, single point] | –
Cc1ccc(C(=O)Nc2cccc(C(=O)N/N=C/c3ccc(O)cc3)c2)cc1 | 3.98 µM [falling, partial curve] | –
COc1ccc2c(c1)[C@H]1[C@H](CO2)[C@H](c2ccccc2)[C@]2(C)C(=O)Nc3ccc(Br)cc3C(=O)N12 | 23.1 µM [falling, partial curve] | –

SMILES | AC50 [1] | AC50 [2]
CCOC(=O)C1CCN(C(=O)c2cccc(NC(=O)C(CC)CC)c2)CC1 | 3.66 µM [rising, full curve, poor fit] | –
CN1CCC(=O)N([C@H](CSc2ccc(Br)cc2)c2ccccc2)CC1 | 8.91 µM [falling, partial curve, poor fit] | –
Cc1ccc(NC(=O)CSc2nc(N)c3cc4c(nc3n2)CCCC4)cc1 | – | 23.1 µM [rising, partial curve, poor fit]
CCn1nnnc1SCC(=O)N1CCN(c2ccccc2)CC1 | 11.2 µM [rising, single point] | –
Clc1cccc(-n2ncc3c(NC4CCCCCC4)ncnc32)c1 | 0.794 µM [falling, full curve] | –
CCc1ccc(/C=C2/C(=O)NC(=O)N2C(C)=O)cc1 | 3.55 µM [rising, full curve, poor fit] | –
O=C(NCc1ccco1)c1ccc(COc2cccc3ccccc23)cc1 | 1.03 µM [falling, full curve] | –
Cc1ccc(C)c(OCc2n[nH]c(=S)o2)c1 | 0.708 µM [rising, full curve, poor fit] | –
CCN(C(=O)c1ccco1)c1nnc(-c2cccnc2)s1 | 7.94 µM [falling, partial curve, poor fit] | –
O=C(NCc1ccccc1)c1cccc(OCC(=O)N2CCN(C(=O)c3ccco3)CC2)c1 | 10 µM [falling, partial curve] | –
COc1ccccc1OCc1ccc(C(=O)OCC2CCCO2)o1 (stereo unspecified) | 4.61 µM [falling, partial curve, poor fit] | –
Cc1ccc(CN2C(=O)c3ccccc3NC2c2cc(Br)ccc2O)cc1 (stereo unspecified) | 35.5 µM [falling, single point] | –
Cc1ccc(CN2CCN(c3cccc4[nH]ccc34)CC2)cc1 | 1.26 µM [falling, full curve, poor fit] | –
COC(CNC(=O)c1cc(S(=O)(=O)N2CCc3ccccc32)ccc1F)OC | 6.31 µM [rising, single point] | –
Cc1noc(C)c1COc1ccc(C(=O)OCC(=O)NCc2ccccc2Cl)cc1 | 29.1 µM [rising, single point] | –
CC(C)(C)OC(=O)N[C@H](C(=O)OC(C)(C)C)c1ccc(Br)cc1 | 20.6 µM [rising, partial curve, poor fit] | –
COc1ccc(N=Cc2oc3ccc4ccccc4c3c2O)cc1 | 0.316 µM [falling, full curve] | –
O=C(Nc1ccc(F)cc1)c1ccc(S(=O)(=O)NCc2cccnc2)cc1 | 3.55 µM [falling, single point] | –
Cc1cccc([N+](=O)[O-])c1NC(=O)COC(=O)C1CCCO1 (stereo unspecified) | 7.31 µM [rising, partial curve, poor fit] | –
O=C(c1ccc(S(=O)(=O)N2CCOCC2)cc1)N1CCN=C1SCc1cccnc1 | 0.0891 µM [falling, full curve, poor fit] | –
